Our source for the binding values is article PMC10256765.

For the assay, the target named is wild-type nsP3 of M1 virus with a 3×flag tag (alphavirus M1). Kind of assay: affinity purification with mass spectrometry; lysate (2 mg/mL) of HCT-116 cells stably expressing 3×flag nsP3 WT or M358L; anti-FLAG antibody or normal mouse IgG overnight at 4 °C, Protein A/G beads; precipitate analysed by mass spectrometry.

These are yes or no findings as the source states them, for the method shown. In cells and extracts the contact can be indirect. A yes stands for co-enrichment or nearness to the bait. Other partners may have been found.

B1: G3BP-2 (protein, UniProt Q9UN86 1-482)
chain: MVMEKPSPLLVGREFVRQYYTLLNKAPEYLHRFYGRNSSYVHGGVDASGKPQEAVYGQNDIHHKVLSLNFSECHTKIRHVDAHATLSDGVVVQVMGLLSNSGQPERKFMQTFVLAPEGSVPNKFYVHNDMFRYEDEVFGDSEPELDEESEDEVEEEQEERQPSPEPVQENANSGYYEAHPVTNGIEEPLEESSHEPEPEPESETKTEELKPQVEEKNLEELEEKSTTPPPAEPVSLPQEPPKAFSWASVTSKNLPPSGTVSSSGIPPHVKAPVSQPRVEAKPEVQSQPPRVREQRPRERPGFPPRGPRPGRGDMEQNDSDNRRIIRYPDSHQLFVGNLPHDIDENELKEFFMSFGNVVELRINTKGVGGKLPNFGFVVFDDSEPVQRILIAKPIMFRGEVRLNVEEKKTRAARERETRGGGDDRRDIRRNDRGPGGPRGIVGGGMMRDRDGRGPPPRGGMAQKLGSGRGTGQMEGRFTGQRR
Consider B1, for which the binding entry is “binds”.
